Measured values published in US10899707B2, “Methods for forming peroxyformic acid and uses thereof” (ECOLAB USA INC., priority 2014, dated 2021).

What was measured:
[1] = Dissolved oxygen in treated produced water (dissolved oxygen probe)
[2] = Corrosion inhibitors protecting carbon steel against performic acid corrosion (mpy, % protection); settings: PFA:Peroxide of 38:1
[3] = Performance of corrosion inhibitor in sea water and produced water systems (% protection); settings: 200 ppm active performic acid, 50 ppm corrosion inhibitor (PFA: no inhibitor)
Description: 200 ppm active of performic acid was added. 50 ppm of corrosion inhibitor was added for corrosion protection. % protection was plotted by comparison of the corrosion rate in the presence of corrosion inhibitor to the corrosion rate with no corrosion inhibitor addition (PFA or PFA-PW) as shown in Table 30.

[4] = 500.0 ppm of prod (29.0 ppm PFA, 0.0 ppm H2O2)
[5] = 1000.0 ppm of prod (58.0 ppm PFA, 0.0 ppm H2O2)
[6] = 1500.0 ppm of prod (87.0 ppm PFA, 0.0 ppm H2O2)
[7] = 2000.0 ppm of prod (116.0 ppm PFA, 0.0 ppm H2O2)
[8] = 4000.0 ppm of prod (232.0 ppm PFA, 0.0 ppm H2O2)
[9] = 8000.0 ppm of prod (464.0 ppm PFA, 0.0 ppm H2O2)
[10] = relative to baseline of the cell

O=COO [PFA, peroxyformic acid]
Concentration of oxygen detected, Expt1 ppm O2 [1, 4]: 5.4 ppm
Concentration of oxygen detected, Expt2 ppm O2 [1, 4]: 5.4 ppm
Concentration of oxygen detected, avg ppm O2 [1, 4]: 5.4 ppm
Increase from baseline of oxygen, Expt1 ppm O2 [1, 4]: −2.6 ppm
Increase from baseline of oxygen, Expt2 ppm O2 [1, 4]: −3.2 ppm
Increase from baseline of oxygen, avg ppm O2 [1, 4]: −2.9 ppm
Concentration of oxygen detected, Expt1 ppm O2 [1, 5]: 6.2 ppm
Concentration of oxygen detected, Expt2 ppm O2 [1, 5]: 4.9 ppm
Concentration of oxygen detected, avg ppm O2 [1, 5]: 5.5 ppm
Increase from baseline of oxygen, Expt1 ppm O2 [1, 5]: −1.8 ppm
Increase from baseline of oxygen, Expt2 ppm O2 [1, 5]: −3.7 ppm
Increase from baseline of oxygen, avg ppm O2 [1, 5]: −2.8 ppm
Concentration of oxygen detected, Expt1 ppm O2 [1, 6]: 6.5 ppm
Concentration of oxygen detected, Expt2 ppm O2 [1, 6]: 5.2 ppm
Concentration of oxygen detected, avg ppm O2 [1, 6]: 5.8 ppm
Increase from baseline of oxygen, Expt1 ppm O2 [1, 6]: −1.5 ppm
Increase from baseline of oxygen, Expt2 ppm O2 [1, 6]: −3.4 ppm
Increase from baseline of oxygen, avg ppm O2 [1, 6]: −2.5 ppm
Concentration of oxygen detected, Expt1 ppm O2 [1, 7]: 6.3 ppm
Concentration of oxygen detected, Expt2 ppm O2 [1, 7]: 5.2 ppm
Concentration of oxygen detected, avg ppm O2 [1, 7]: 5.8 ppm
Increase from baseline of oxygen, Expt1 ppm O2 [1, 7]: −1.7 ppm
Increase from baseline of oxygen, Expt2 ppm O2 [1, 7]: −3.4 ppm
Increase from baseline of oxygen, avg ppm O2 [1, 7]: −2.6 ppm
Concentration of oxygen detected, Expt1 ppm O2 [1, 8]: 5.8 ppm
Concentration of oxygen detected, Expt2 ppm O2 [1, 8]: 4.7 ppm
Concentration of oxygen detected, avg ppm O2 [1, 8]: 5.3 ppm
Increase from baseline of oxygen, Expt1 ppm O2 [1, 8]: −2.2 ppm
Increase from baseline of oxygen, Expt2 ppm O2 [1, 8]: −3.9 ppm
Increase from baseline of oxygen, avg ppm O2 [1, 8]: −3.1 ppm
Concentration of oxygen detected, Expt1 ppm O2 [1, 9]: 6.5 ppm
Concentration of oxygen detected, Expt2 ppm O2 [1, 9]: 5.1 ppm
Concentration of oxygen detected, avg ppm O2 [1, 9]: 5.8 ppm
Increase from baseline of oxygen, Expt1 ppm O2 [1, 9]: −1.5 ppm
Increase from baseline of oxygen, Expt2 ppm O2 [1, 9]: −3.5 ppm
Increase from baseline of oxygen, avg ppm O2 [1, 9]: −2.5 ppm
total dissolved oxygen (in words) ([1]; produced water): decreased
2 hrs after dosing, mpy [2]: 236.2 mpy
8 hrs after dosing, mpy [2]: 243.1 mpy
Last hour of testing, mpy [2]: 419.4 mpy
2 hrs after dosing, % Protection [2, 10]: −631.1%
8 hrs after dosing, % Protection [2, 10]: −652.3%
Last hour of testing, % Protection [2, 10]: −1197.9%
mpy, 3 hrs after dosing ([3]; produced water (PW)): 17.2 mpy
mpy, 8 hrs after dosing ([3]; produced water (PW)): 16.7 mpy
mpy, Last hour of testing ([3]; produced water (PW)): 18.4 mpy
mpy, 3 hrs after dosing ([3]; sea water): 545.9 mpy
mpy, 8 hrs after dosing ([3]; sea water): 686.9 mpy
mpy, Last hour of testing ([3]; sea water): 739.4 mpy
